According to article PMC6450910:
These are yes or no findings as the source states them, for the method shown. In cells and extracts the contact can be indirect. A result given as binding can be weak or reduced; the word gives no strength.

The chains behind the UniProt entries cited, without tags or fusion partners. Where a name states a change or a piece, a line headed by the entry shows the natural chain unless it says otherwise.
UniProt P34741: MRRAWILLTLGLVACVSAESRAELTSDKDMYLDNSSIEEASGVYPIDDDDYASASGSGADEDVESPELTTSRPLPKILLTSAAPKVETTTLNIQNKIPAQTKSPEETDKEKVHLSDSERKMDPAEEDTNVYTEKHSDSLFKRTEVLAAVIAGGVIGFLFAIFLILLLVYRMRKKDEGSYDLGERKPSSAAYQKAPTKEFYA
UniProt O08992: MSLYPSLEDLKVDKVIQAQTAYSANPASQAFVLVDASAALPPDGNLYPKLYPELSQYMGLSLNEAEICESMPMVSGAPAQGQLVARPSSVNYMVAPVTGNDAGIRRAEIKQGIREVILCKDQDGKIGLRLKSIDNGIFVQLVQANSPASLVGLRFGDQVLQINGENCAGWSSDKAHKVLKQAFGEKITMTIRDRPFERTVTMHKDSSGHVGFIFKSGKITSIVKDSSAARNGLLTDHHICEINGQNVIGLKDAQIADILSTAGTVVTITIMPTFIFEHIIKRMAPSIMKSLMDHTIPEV

Target: HA-tagged Sdc2 mutant devoid of its GAG chains (Ad-Sdc2^ΔGAG) (UniProt P34741)
Experiment: co-IP; Sdc2-/- primary mouse ECs transduced 16 h with adenovirus (MOI 1-2), starved 8 h, stimulated with VEGFA165 (50 ng/ml) 5 min; 1% Triton lysis buffer; anti-HA magnetic beads 2 h at 4 °C; western blot

binding: binds
Substance: syntenin (mouse, endogenous) (from UniProt O08992 1-299)
